Source: PubChem BioAssay AID1671195 (Yale University, 2021)
This is an unselected part of about 22,000 reagents. About 1,510 of all reagents (6.9%) count as active. 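Active includes knockdowns raising or lowering LDL uptake; positive z-scores mean more uptake, negative mean less.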 A number with no mark means an inactive call.

Aim: 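Regulators of LDL receptor activity judged by labelled LDL uptake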 (primary screen)
Cells: human Huh7 hepatoma cells
Knock-down reagent: siRNA pool against human genes, 18 nM
Duration: about 2 to 2.5 days of knockdown, then 8 h LDL uptake
Challenge: DiI-labelled LDL at 30 µg/ml for 8 h, in lipoprotein-deficient serum medium
Read-out: 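Per-cell DiI-LDL intensity by automated imaging; well means scaled to the plate median and given as a robust z-score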
Direction: robust z-score: higher = more LDL uptake after knockdown
Call rule: 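a gene counts as active if at least two replicate z-scores exceed ±2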

LOC441436 (retired record): robust z-score, replicate 1 = 2.22 (active); robust z-score, replicate 2 = 2.85; robust z-score, replicate 3 = 2.47
LOC389939 (retired record): robust z-score, replicate 1 = -0.441; robust z-score, replicate 2 = -0.458; robust z-score, replicate 3 = -0.649
SULT1E1: robust z-score, replicate 1 = -1.38; robust z-score, replicate 2 = -1.31; robust z-score, replicate 3 = -0.794
KLHL42: robust z-score, replicate 1 = 0.767; robust z-score, replicate 2 = -0.534; robust z-score, replicate 3 = 3
LOC284798: robust z-score, replicate 1 = 0.799; robust z-score, replicate 2 = 0.587; robust z-score, replicate 3 = 0.549
ATN1: robust z-score, replicate 1 = 0.0174; robust z-score, replicate 2 = -1.65; robust z-score, replicate 3 = -0.671
PVRIG: robust z-score, replicate 1 = 1.01; robust z-score, replicate 2 = 0.304; robust z-score, replicate 3 = 1.23
RPL5P7: robust z-score, replicate 1 = 1.47; robust z-score, replicate 2 = 0.934; robust z-score, replicate 3 = 1.35
RPL7AP66: robust z-score, replicate 1 = -0.0284; robust z-score, replicate 2 = -0.187; robust z-score, replicate 3 = 0.204
PPP4R1: robust z-score, replicate 1 = 1.31; robust z-score, replicate 2 = 1.51; robust z-score, replicate 3 = 1.07
LOC401072 (retired record): robust z-score, replicate 1 = -0.481; robust z-score, replicate 2 = -0.517; robust z-score, replicate 3 = -1.24
MARCHF3: robust z-score, replicate 1 = -0.428; robust z-score, replicate 2 = 1.36; robust z-score, replicate 3 = 0.26
ANKMY2: robust z-score, replicate 1 = -0.192; robust z-score, replicate 2 = -0.463; robust z-score, replicate 3 = -0.646
SUGCT: robust z-score, replicate 1 = 1.07; robust z-score, replicate 2 = 1.92; robust z-score, replicate 3 = 1.61
CCDC28B: robust z-score, replicate 1 = -0.0724; robust z-score, replicate 2 = 0.485; robust z-score, replicate 3 = 0.429
MZB1: robust z-score, replicate 1 = 0.456; robust z-score, replicate 2 = 0.868; robust z-score, replicate 3 = 0.165
LRGUK: robust z-score, replicate 1 = 1.32; robust z-score, replicate 2 = 0.391; robust z-score, replicate 3 = 1.63
SLC1A2: robust z-score, replicate 1 = -0.118; robust z-score, replicate 2 = -0.69; robust z-score, replicate 3 = -0.433
TSPAN15: robust z-score, replicate 1 = -1.24; robust z-score, replicate 2 = -1.36; robust z-score, replicate 3 = -1.21
LOC401098 (retired record): robust z-score, replicate 1 = 0.32; robust z-score, replicate 2 = 0.293; robust z-score, replicate 3 = 1.17
LINC02906: robust z-score, replicate 1 = -0.226; robust z-score, replicate 2 = -0.0307; robust z-score, replicate 3 = -0.487
HSDL1: robust z-score, replicate 1 = 0.744; robust z-score, replicate 2 = 0.573; robust z-score, replicate 3 = 0.68
KRT81: robust z-score, replicate 1 = 0.915; robust z-score, replicate 2 = -0.224; robust z-score, replicate 3 = 0.297
ARL8A: robust z-score, replicate 1 = 0.199; robust z-score, replicate 2 = 0.22; robust z-score, replicate 3 = 0.71

2 of these entries, reformatted:
gene symbol | robust z-score, replicate 1 | robust z-score, replicate 2 | robust z-score, replicate 3
LOC389939 (retired record) | -0.441 | -0.458 | -0.649
SULT1E1 | -1.38 | -1.31 | -0.794
